Reference: PubChem BioAssay AID2417 (National Center for Advancing Translational Sciences (NCATS), 2010)
About 4,300 (3.1%) of roughly 140,000 compounds were called active. This list was built around the results that the source calls inconclusive (neither active nor inactive); the mix of calls is not that of the screen.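 How the source made its calls: active means readout at or below -70, meaning at least 70% loss of cells showing the perinucleolar compartment, a nuclear body marking cancer cells; inconclusive means readout between -30 and a set limit; inactive means the rest.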

Experiment: High Content Assay for Compounds that inhibit the Assembly of the Perinucleolar Compartment;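 further: plate controls were DMSO wells for no effect and camptothecin positive control wells for full effect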
Settings: PC3M PTB-GFP, PNC prevalence imaging, 16 h; at 10 µM; stronger effect = lower value
Outline: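 Read-out is percentage of cells bearing a perinucleolar compartment, from automated 20x imaging of fixed, Hoechst-stained PC3M PTB-GFP cells. Cells were seeded 4 h, then exposed 16 h to compound (23 nl of library stock) in duplicate plates.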

SMILES | activity change (PNC), negative = inhibition
O=C(c1csc2ccccc12)N1CCN(c2ccccn2)CC1 | inconclusive: -48.1%
c1ccc(CNc2ccc3ccccc3n2)nc1 | inconclusive: -35.1%
O=C(/C=C/c1ccccc1)c1cc(Br)ccc(=O)c1O | inactive: -21.4%
O=c1cc(-c2ccccc2)[nH]c2cc(F)ccc12 | inconclusive: -48.7%
Cc1ccc(Sc2ccc(NC(=O)CCl)cc2)c(C)c1 | inactive: -26.7%
CCC(C)(C(=O)NC1CCCC1)N(Cc1cccs1)C(C)=O (stereo not drawn) | active: -100%
CC(C)(C)c1nnc(N/N=C/c2ccccc2)n(N)c1=O | inconclusive: -32.5%
Cc1cc(C)c2nc3s/c(=C/c4ccccc4)c(=O)n3c2c1 | inconclusive: -65.2%
N#CC1=C(N)C(C#N)(C#N)[C@H](c2ccncc2)[C@H]2CN(C(=O)OCc3ccccc3)CC=C12 | active: -100%
COCC(=O)NC1CCN(CC(=O)Nc2ccc(OC)cc2[N+](=O)[O-])CC1 | inactive: -26.5%
Cc1cc(Cl)cc(C)c1OCCCCN1CCOCC1 | inconclusive: -36.8%
Cc1cccc(C)c1NC(=O)C(NC=O)c1ccc(Cl)cc1 (stereo not drawn) | inactive: -18.4%
CCN=C(NC#N)SCc1c(F)cccc1Cl | active: -109%
CN(C)S(=O)(=O)N1CCN(C(=O)N(c2ccccc2)c2ccccc2)CC1 | inconclusive: -34.1%
NNC(=O)CNC(=O)c1ccccc1F | inconclusive: -47.8%
O=C(CC(=O)NC1CCCCC1)N/N=C/c1cccc2ccccc12 | active: -85.5%
OC(COCC1COc2ccccc2O1)CN1CCN(c2ccc(F)cc2)CC1 (stereo not drawn) | inactive: -2.15%
Cc1nn(-c2ccccc2)c2[nH]c(=O)c(CNc3ccc(N4CCOCC4)cc3)cc12 | inactive: -12.9%
COc1cccc(-n2c(CNc3ccc(F)cc3)nnc2SCC(N)=O)c1 | inconclusive: -35.3%
Cc1ccc(C(C(=O)NC2CCCC2)N(C(=O)c2csnn2)C2CCCC2)o1 (stereo not drawn) | inconclusive: -42.2%

SMILES | activity change (PNC), negative = inhibition
CC1Cc2nc(SCC(=O)N3CCCC3)n(C)c(=O)c2S1 (stereo not drawn) | inconclusive: -45.2%
O=C(Nc1nc2c(s1)CCCC2)c1cc2n(n1)C(C(F)(F)F)CC(C1CC1)N2 (stereo not drawn) | inconclusive: -33.2%
O=C(CSc1ccc2c(c1)OCCO2)Nc1ccc(Br)cc1 | inconclusive: -53.7%
CCOC(=O)Cc1c(C)nc2c(-c3ccccc3)c(C)[nH]n2c1=O | inactive: 41.2%
CCC(C)(C)C(=O)Nc1ccc(C(N)=O)cc1 | inconclusive: -36.6%
Oc1ccc(/C=N/N=C(c2ccccc2)c2ccccc2)c(O)c1O | inactive: -28.1%
O=C(NC1CCCCC1)C(c1cccs1)N(C(=O)c1ccco1)c1ccc2c(c1)OCCO2 (stereo not drawn) | active: -100%
CCn1cc(C(=O)Nn2cnnc2)c(=O)c2ccc(C)nc21 | inconclusive: -53%
CCC(Sc1nccn1C)C(=O)Nc1cccc2ccccc12 (stereo not drawn) | inconclusive: -35.4%
CC(C)C(=O)NS(=O)(=O)c1ccc(N)cc1 | inconclusive: -31.8%
COc1ccc(-n2c(=S)[nH]c3sc4c(c3c2=O)CCc2ccccc2-4)cc1 | inconclusive: -34.4%
O=c1cc(-c2ccco2)oc2c1ccc1ccccc12 | inconclusive: -35.7%
O=C(NC1CCCCCCC1)c1ccc2c(c1)N(Cc1ccc(F)cc1)C(=O)CS2=O (stereo not drawn) | inactive: -29.6%
O=C(CN1CCN(c2nc(-c3ccccc3)cs2)CC1)NNC(=O)c1ccc(Br)cc1 | inconclusive: -56.5%
CCOC(=O)N1CCN(C(=O)C2CCN(Cc3nc(-c4ccccc4C)oc3C)CC2)CC1 | inconclusive: -34.9%
CCC(c1nnnn1C1CCCC1)N1CCN(Cc2ccccc2)CC1 (stereo not drawn) | inconclusive: -34%
O=C(CCCC(=O)N(CC(=O)NC1CCCC1)Cc1ccccc1)Nc1ccccn1 | inconclusive: -51.4%
COc1ccc(-c2c(C#N)c(SCC(=O)c3cc4ccccc4oc3=O)nc(C)c2C(=O)Nc2ccccc2)cc1 | inconclusive: -30.3%
COCCNC(=O)Cn1nc(C(F)(F)F)c(Cl)c1C | inactive: 17%
COc1cc2c(cc1NC(=O)C(C)Sc1ccc(NC(C)=O)cc1)oc1ccccc12 (stereo not drawn) | inactive: -0.288%

SMILES | activity change (PNC), negative = inhibition
CCC(C)(C)n1nnnc1CN1CCC(NC(=O)c2ccccc2C)CC1 | active: -100%
CC(C)CC(=O)Nc1cccc2c1C(=O)N(c1ccccc1)C2=O | inconclusive: -39.6%
COc1ccc(Cn2c(O)c(C=Nc3ccc(OC)cc3)c3ccccc3c2=O)cc1 | inactive: -16.6%
CCN(CC)S(=O)(=O)c1ccc(NC(=O)CSc2nnc(-c3ccc(F)cc3)o2)cc1 | active: -107%
O=C(CCc1ccccc1)Nc1ccc(Cl)cn1 | inconclusive: -72.4%
OC(COCCOc1ccc(Br)cc1)CN1CCCCC1 (stereo not drawn) | inactive: -0.22%
CCN(CC)S(=O)(=O)c1ccc(F)c(C(=O)NCCCN2CCOCC2)c1 | active: -117%
COC(=O)c1ccccc1Nc1cc(C)nc2nc(C)nn12 | inactive: 25%
O=C(O)c1cccc(S(=O)(=O)NCc2cccs2)c1 | inactive: -12.3%
CCOC(=O)c1nnc(-c2ccc(C)cc2)nc1Sc1ccccc1Cl | inconclusive: -31.6%
CCOc1ccc(-n2nnc3c(=O)n(C/C=C/c4ccccc4)cnc32)cc1 | active: -88.8%
COc1ccc(C(C)(C)C)cc1S(=O)(=O)N1CCC(C(N)=O)CC1 | inconclusive: -59.6%
COC(=O)c1ccc(CNC(=O)c2ccc(COc3ccccc3)cc2)cc1 | active: -100%
CC(C)C(c1nnnn1CC1CCCO1)N1CCN(Cc2ccc3c(c2)OCO3)CC1 (stereo not drawn) | inactive: 3.71%
Cc1ccc(N2CCN(CCc3nc4cc(NS(C)(=O)=O)ccc4n3C)CC2)cc1 | inconclusive: -51.9%
Clc1ccc2nc(CSc3nnc4ccccn34)cn2c1 | inconclusive: -38.5%
O=C(CN1CCN(c2ccccc2)CC1)N/N=C/c1cccc(F)c1 | inconclusive: -32.2%
CCOc1cc(/C=N/N=C(/N)c2nonc2N)cc(Br)c1OCc1ccc(Cl)cc1 | inconclusive: -35.8%

Of the compounds above, these have a CF3 group.
SMILES | activity change (PNC), negative = inhibition
O=C(Nc1nc2c(s1)CCCC2)c1cc2n(n1)C(C(F)(F)F)CC(C1CC1)N2 (stereo not drawn) | inconclusive: -33.2%
COCCNC(=O)Cn1nc(C(F)(F)F)c(Cl)c1C | inactive: 17%

Two entries from above in a different format.
CCOC(=O)Cc1c(C)nc2c(-c3ccccc3)c(C)[nH]n2c1=O
  activity change (PNC), negative = inhibition: inactive: 41.2%
COc1ccc(C(C)(C)C)cc1S(=O)(=O)N1CCC(C(N)=O)CC1
  activity change (PNC), negative = inhibition: inconclusive: -59.6%
